Cell number change and AC50 data for 58 molecules are collected here from PubChem BioAssay AID2685 (National Center for Advancing Translational Sciences (NCATS), 2010).

This test is described as follows: qHTS Assay for Lipid Storage Modulators in Drosophila S3 Cells.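 As to Cell number change: cells counted by Cell Tracker Red CMTPX staining in the red channel.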 The note with it: BODIPY lipid droplet fluorescence, 18-24 h; for cell number change: measured here: cell count max response, cells fed with added oleic acid. In a few lines: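 Laser-scanning cytometry quantifies lipid droplet accumulation (500–530 nm total intensity; droplet/cell object ratio) in oleic acid-fed (400 uM added) Drosophila S3 cells treated with a concentration series. 20 uM Triacsin C defined 100% inhibition.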
For orientation: In qHTS, concentration-response curves come from the screen itself.

The mark [1] stands for this setting: measured here: lipid fluorescence (Fed channel) AC50, cells fed with added oleic acid.
Setting [2] is: measured here: cell number channel AC50, cells fed with added oleic acid.

This is one part of the list. The main result of the screen is listed elsewhere. These columns were measured beside it and carry no call. Most of these compounds were active or inconclusive in the main read-out, so they are no random draw. The note in brackets gives the kind of curve behind each potency; many fits are weak.

For the molecule `CCOC(=O)c1ccccc1NC(=O)COC(=O)C1CCCC1`, the cell number change was -2.09%. What is called AC50 is the midpoint of the concentration-response curve, whichever way the signal moves. Read a high AC50 as activity only at high concentration. Consider `Cc1nn(-c2ccccc2)c(C)c1NC(=O)COC(=O)c1cc([N+](=O)[O-])ccc1NCCO`, for which the cell number change is -20.3%. In addition, the AC50 under setting [1] is 10 µM [falling, partial curve]. As to `CCN(CC)Cc1c(C(=O)N/N=C/c2ccc(OCc3ccccc3C)cc2)nnn1-c1nonc1N`, the cell number change came out at 127%. In addition, the concentration at half-maximal activity (AC50) under setting [2] was 29.1 µM [rising, single point]. Moreover, under setting [1], the AC50 was 29.1 µM [falling, single point].

Consider `CCc1nnc(NC(=O)CSc2nc3[nH]c(=O)cc(O)c3s2)s1`, for which the cell number change worked out at 1.5%. Also, the AC50 under setting [1] is 0.461 µM [rising, partial curve, poor fit]. As for `CCC(C)(C)C1CCc2[nH]nc(C(=O)NCc3ccccn3)c2C1` (configuration not stated), the cell number change is -52.1%. Also, under setting [2], the AC50 was 14.6 µM [falling, single point]. Regarding `O=C(NC1CCCC1)C(c1cccnc1)N(Cc1ccccc1)C(=O)c1csnn1` (configuration not stated), the AC50 under setting [1] was 29.1 µM [falling, single point].

Take `O=C(CSc1nc2ccccc2c(=O)[nH]1)Nc1ccccc1C(F)(F)F`: the cell number change came out at 5.01%. The AC50 under setting [1] was 1.84 µM [falling, partial curve]. For the molecule `O=C(NCCc1nc2ccc(Cl)cc2[nH]1)C1CCC(=O)N(Cc2cccc(F)c2)C1` (configuration not stated), the cell number change was -21.7%. Moreover, under setting [1], the half-maximal activity concentration (AC50) is 16.4 µM [falling, single point]. With `CC1CCc2[nH]c3ccc(C(=O)N(C)CC(=O)Nc4ccccc4Br)cc3c2C1` (configuration not stated), the AC50 by setting is: under setting [2], 1.3 µM [rising, partial curve]; under setting [1], 1.3 µM [rising, partial curve]. `CCOc1cc(S(=O)(=O)NCC2OCCc3ccccc32)c(OCC)cc1-n1cnnn1` (configuration not stated): the cell number change is -6.78%. In addition, the AC50 under setting [1] is 0.731 µM [falling, single point].

In the case of `O=C(Nc1ccc2nc3n(c(=O)c2c1)CCCCC3)c1cc([N+](=O)[O-])ccc1F`, the cell number change is -31.6%. Further, the AC50 under setting [2] was 13 µM [falling, single point]. In addition, under setting [1], the AC50 was 2.06 µM [falling, full curve].

On to `COc1cc(C)c(Cl)c(C)c1S(=O)(=O)NCc1cccnc1`, for which the cell number change was determined as 81.5%. For the same molecule, the AC50 under setting [2] is 2.59 µM [rising, full curve]. In addition, the AC50 under setting [1] is 3.26 µM [rising, partial curve]. On to `COC(=O)c1ccccc1NC(=O)C1CCN(S(C)(=O)=O)CC1`, for which the AC50 under setting [2] is 4.61 µM [rising, single point].

In the case of `Cc1ccc(NC(=O)c2nc[nH]c2C(=O)NCCCCCNC(=O)OC(C)(C)C)cc1`, the cell number change is -57.6%. For the same molecule, the AC50 under setting [2] is 8.2 µM [falling, single point]. Further, the AC50 under setting [1] was 0.116 µM [rising, full curve]. Consider `Cc1ccc(Cl)cc1N1CCN(c2cccc[n+]2C)CC1`, for which the cell number change was determined as 11.1%. Also, the concentration at half-maximal activity (AC50) under setting [1] was 0.00517 µM [falling, full curve, poor fit].

On to `COc1cccc(/C=N/Nc2nnc(C)n2N)c1O`, for which the cell number change turned out to be 10.8%.

With `O=S(=O)(Nc1ccccc1Cl)c1cccc2nsnc12`, the cell number change is -12.2%. Take `COc1ccc(C(=O)CN2Cc3ccccc3C2=N)cc1`: the cell number change is 17.9%. Further, the AC50 under setting [1] was 23.1 µM [rising, partial curve].

In the case of `O=C1NC(=O)/C(=C\c2ccccc2Oc2ccc(F)c(F)c2)S1`, the cell number change was -2.19%. Under setting [1], the AC50 is 2.59 µM [falling, single point]. In the case of `Cc1cccc(OCCCOc2cccc3cccnc23)c1C`, the cell number change is -45.5%. In addition, the concentration at half-maximal activity (AC50) under setting [2] was 29.1 µM [falling, single point]. Further, the AC50 under setting [1] was 23.1 µM [falling, single point]. As to `CCN(CC(=O)Nc1c(F)cccc1F)C(=O)c1ccc(COc2ccccc2)cc1`, the cell number change is 25%. For the same molecule, under setting [1], the AC50 is 20.6 µM [falling, single point].

As for `CCNC(=S)N/N=C(\C)c1ccco1`, the cell number change came to 0.678%. Besides, the AC50 under setting [1] is 0.00517 µM [rising, full curve, poor fit]. On to `COc1ccc(NC(=O)CC(C)CC(=O)NCc2ccccc2)c(OC)c1` (configuration not stated), for which the cell number change is 7.35%. Also, under setting [1], the AC50 was 20.6 µM [rising, single point].

As to `O=C(OCC(=O)c1ccc[nH]1)c1ccc2ccccc2n1`, under setting [1], the AC50 is 6.51 µM [falling, partial curve, poor fit]. Consider `COc1ccc(N(CC(=O)NC2CCCC2)C(=O)CCC(=O)Nc2nc(C)cs2)cc1OC`, for which the cell number change worked out at 23.4%. In addition, the AC50 under setting [1] is 29.1 µM [rising, single point]. For `COc1ccc2[nH]c(C)c(CCNC(=S)Nc3cc(C)ccc3C)c2c1`, the cell number change was 29%. The AC50 under setting [1] is 1.3 µM [rising, full curve]. Turning to `CCOC(=O)C1=C(C)NC(SC)=C(C#N)C1CC(C)C` (configuration not stated), the cell number change was -2.81%. The AC50 under setting [1] was 6.51 µM [rising, partial curve, poor fit]. Turning to `CC1CN(C2CCN(C(=O)COc3ccc(Cl)cc3)CC2)CC(C)O1` (configuration not stated), the cell number change was found to be 3.42%. In addition, the AC50 under setting [2] is 0.58 µM [rising, full curve, poor fit]. Turning to `O=C(Nc1ncc([N+](=O)[O-])s1)c1ccccc1Br`, the cell number change is -61.8%. Moreover, the AC50 under setting [2] was 9.2 µM [falling, partial curve]. Moreover, the concentration at half-maximal activity (AC50) under setting [1] is 32.6 µM [falling, single point]. Take `Cc1ccc(S(=O)(=O)NCC(=O)NC2CCCCCC2)cc1`: the cell number change was found to be 13%. For the same molecule, under setting [1], the AC50 was 0.366 µM [falling, partial curve, poor fit]. In the case of `CC(C)[C@H](NC(=O)OCc1ccccc1)C(=O)OCC(=O)NC1(C#N)CCCC1`, the cell number change is -6.93%. For the same molecule, the AC50 under setting [1] is 29.1 µM [rising, single point]. With `Cc1ccc2c(nc3s/c(=C/c4cccs4)c(=O)n32)c1C`, the cell number change was -22.3%. Moreover, the half-maximal activity concentration (AC50) under setting [1] was 14.6 µM [falling, partial curve, poor fit]. In the case of `O=C(CN1CCCC1)Nc1ccccc1Sc1ccc(Cl)cc1`, the cell number change is -30.1%. The AC50 under setting [2] was 9.2 µM [falling, partial curve]. In addition, the AC50 under setting [1] was 10.3 µM [falling, partial curve]. Turning to `COC(=O)c1c(NC(=O)c2nc3nc(C)cc(C(F)F)n3n2)sc2c1CCC2`, the cell number change is 0.909%. Also, under setting [1], the AC50 was 4.61 µM [rising, partial curve]. As for `C=CCOc1cccc(/C=N/NC(=O)CN(c2cc(Cl)ccc2OC)S(=O)(=O)c2ccc(C)c([N+](=O)[O-])c2)c1`, the cell number change was determined as 27.1%. Further, the AC50 under setting [1] is 2.06 µM [rising, partial curve, poor fit].

For the molecule `COP(=O)(OC)C(Nc1ccc(C)cc1)c1ccc([N+](=O)[O-])cc1` (configuration not stated), the cell number change turned out to be 11.6%. Moreover, the AC50 under setting [1] is 0.0058 µM [rising, full curve, poor fit]. Take `CS(=O)(=O)c1ccc(N)c(SSc2cc(S(C)(=O)=O)ccc2N)c1`: the cell number change is -84.8%. Also, under setting [2], the AC50 is 25.9 µM [falling, partial curve]. In addition, under setting [1], the AC50 was 0.0731 µM [falling, full curve, poor fit]. For the molecule `COc1ccc(-c2cc(C(=O)n3cnc4ccccc43)c3ccccc3n2)cc1`, the cell number change was found to be 40.4%. Further, the half-maximal activity concentration (AC50) under setting [2] was 2.06 µM [rising, partial curve]. Under setting [1], the AC50 is 4.11 µM [rising, partial curve]. For the molecule `CCc1nnc(NC(=O)c2ccc(-c3cc(C(F)(F)F)ccc3Cl)o2)s1`, the cell number change is -4.29%. In addition, under setting [1], the AC50 is 6.51 µM [falling, single point]. Turning to `c1ccc(-c2cc(N3CCCCC3)c3ccccc3n2)cc1`, the cell number change was -9.38%. In the case of `COc1ccc(CN2CCn3ncc(C(=O)Nc4ccccc4)c3C2=O)cc1`, the cell number change stood at 3.61%. Also, the AC50 under setting [1] was 0.366 µM [falling, full curve].

`Cc1ccc(C)c(S(=O)(=O)Nc2cc3c4c(c2)CC(=O)N4CCC3)c1`: the AC50 under setting [2] is 0.13 µM [rising, full curve, poor fit]. Regarding `CCOc1ccc(N/N=C(/C#N)C(N)=O)cc1`, the cell number change was -14.2%. Further, the AC50 under setting [1] was 11.6 µM [falling, partial curve, poor fit]. As to `O=C(CC1C(=O)NC2CCCCC2N1C(=O)c1ccc([N+](=O)[O-])cc1)Nc1ccccc1` (configuration not stated), the cell number change is -14.4%. With `O=C(NNc1nc(-c2ccc(Br)cc2)cs1)c1ccco1`, the AC50 under setting [1] is 29.1 µM [falling, partial curve, poor fit]. With `CCOc1cc(C2c3c(n[nH]c3C)C(=O)N2c2ccc(C)cc2)ccc1O` (configuration not stated), under setting [2], the AC50 was 5.8 µM [falling, single point]. Consider `CCOC(=O)C1=C(CN2CCN(c3ccc(F)cc3)CC2)NC(=O)NC1c1cccs1` (configuration not stated), for which the cell number change is -20.7%. Under setting [1], the AC50 is 1.84 µM [rising, partial curve, poor fit]. Turning to `O=C(Oc1ccc(N2C(=O)CCC2=O)cc1)c1ccccc1Cl`, the cell number change was determined as 19.8%. Besides, under setting [1], the AC50 is 0.651 µM [falling, full curve, poor fit].

Take `Cc1cccc(C(=O)N/N=C2\CS(=O)(=O)N(C)c3ccsc32)c1`: the cell number change came to 4.22%. Under setting [1], the AC50 was 6.51 µM [rising, single point]. With `CCN(CC(=O)NCc1cccs1)C(=O)/C=C/c1cccc(OC)c1OC`, the cell number change came to 18.5%.

For `Cn1c2c(c(=O)n3ncnc13)CCCC2`, the AC50 under setting [2] was 0.92 µM [falling, full curve]. In the case of `C(=C(c1ccccc1)c1ccccc1)c1ccccn1`, the cell number change was determined as 4.55%. Moreover, the concentration at half-maximal activity (AC50) under setting [2] was 1.46 µM [falling, partial curve, poor fit]. In addition, the AC50 under setting [1] was 2.06 µM [falling, partial curve, poor fit].

For the molecule `COc1cccc(C(c2sc3ncnn3c2O)N2CC(C)OC(C)C2)c1` (configuration not stated), the AC50 under setting [2] was 2.91 µM [rising, partial curve, poor fit] and the AC50 under setting [1] was 0.326 µM [rising, full curve, poor fit]. Take `CC(=O)NC(Cc1ccccc1C)C(=O)NC1CCN(c2ncccc2[N+](=O)[O-])CC1` (configuration not stated): the cell number change was -22.4%. Moreover, the half-maximal activity concentration (AC50) under setting [2] is 2.06 µM [rising, partial curve]. Also, the AC50 under setting [1] was 0.411 µM [rising, full curve]. As for `CC/C(C)=N/Nc1nc(-c2cc3cccc(OC)c3oc2=O)cs1`, the cell number change turned out to be 1.57%. Further, the AC50 under setting [1] is 6.51 µM [falling, single point]. For the molecule `CCOC(=O)N1CCN(Cc2ccccc2F)CC1`, the cell number change came out at 3.59%. Take `O=C(N/C(=C/c1cccc([N+](=O)[O-])c1)C(=O)N1CCOCC1)c1ccc(Br)cc1`: the cell number change was found to be 31.7%. Also, the AC50 under setting [2] is 13 µM [rising, single point]. For `CCOc1ccc(/C=C2/SC(=O)NC2=S)cc1`, the cell number change is -6.23%.
